Laboratory results published in patent US20120022129A1, “Targeting of Histone Deacetylase 2, Protein Kinase CK2, and Nuclear Factor NRF2 For Treatment of Inflammatory Diseases” (priority 2008, published 2012).
At least one structure is not confirmed: it was looked up by name or label, or the drawing left a doubt.

Assays:
[1] = tested on: LPS-induced lung inflammation; assay: LPS-induced lung inflammation in Nrf2−/− mice; format: in vivo, mouse
[2] = tested on: LPS-induced lung inflammation; assay: LPS-induced lung inflammation in WT mice; format: in vivo, mouse
Method: (§1) LPS exposure studies in mice were performed as described previously. Briefly, age-matched WT, Nrf2−/− and HDAC2−/− were exposed to aerosolized Escherichia coli LPS (1 mg/ml) for 8 minutes. Aerosolized saline-exposed mice were used as controls, and animals were sacrificed at 24 h post last exposure.
(§2) Corticosteroid treatment.
(§3) Bronchoalveolar lavage. Mice were anaesthetized by pentobarbital (Abbott Laboratories, Abbott Park, Ill.) intraperitoneal injection (100 mg/kg body weight) before sacrifice. Lungs were then removed and lavaged three times with 0.6 ml of 0.9% sodium chloride with cannula inserted into the trachea. Total lavage fluid for each mouse was combined and then centrifuged. Supernatants were frozen at −80° C. until required for further analysis and cell pellets resuspended in 1 ml of saline, and total number of cells determined using a haemocytometer. Differential counts (minimum 500 per slide) were determined using Diff-Quik (Dade Behring, Newark, Del.)-stained cytospin slides.
(§4) Cytokine Analysis. Monocyte chemotactic protein 1 (MCP-1) levels were measured from mouse lung soluble protein by enzyme-linked immunosorbent assay (ELISA) with the duo-antibody kit (R & D Systems). Results were normalized to protein concentration per sample.

[3] = tested on: LPS-induced lung inflammation; assay: LPS-induced lung inflammation in HDAC2−/− mice; format: in vivo, mouse
From the text: Mice. The Nrf2 knockout (KO) mouse strain (Nrf2−/− on C57BL/6J background) used in this study is described earlier and was generously supplied by Prof. Masayuki Yamamoto, University of Tsukuba, Japan via the RIKEN BioResource Center, Tsukuba, Japan. HDAC2 mutant (HDAC2−/− on C57BL/6J background) mice were kindly provided by Dr. J. A. Epstein (University of Pennsylvania School of Medicine, Philadelphia, Pa.). […] Wild-type (WT) C57BL/6J mice were purchased from Jackson laboratories (Bar Harbor, Me.). All animal protocols for this study were approved by the University Committee on Animal Research of the University of Rochester.
as §1, §2, §3, §4

HDAC2 = conditions: U937 monocytic cell line; oxidative stress (H2O2); cited from earlier work
IL-8 = assay: CSE-mediated IL-8 release from MonoMac6 cells (ELISA); format: cell-based, human; conditions: dexamethasone low and high dose (0.1 and 1) 2 h pre-treatment, CSE 1 and 2.5% 24 h

CCCC1O[C@@H]2C[C@H]3[C@@H]4CCC5=CC(=O)C=C[C@]5(C)[C@H]4[C@@H](O)C[C@]3(C)[C@]2(C(=O)CO)O1 (stereo partly drawn) [budesonide]
neutrophils influx in BALF ([1]; budesonide 1 and 3 mg/kg pretreatment, LPS): not altered
LPS-induced release of MCP-1 in lung ([1]; budesonide pretreatment): did not reduce
LPS-induced release of KC in lung ([1]; budesonide pretreatment (data not shown)): did not reduce
RelA/p65 nuclear accumulation in the lung ([1]; low and high dose budesonide, LPS (unpublished data)): failed to respond
neutrophil counts in BALF ([2]; budesonide 3 mg/kg intranasal 3 days, then aerosolized LPS): significantly reduced
MCP-1 release in lung ([2]; budesonide pretreatment, LPS exposure): significantly lowered
KC release in lung ([2]; budesonide pretreatment, LPS exposure (data not shown)): significantly lowered
matrix metalloproteinase 9 (MMP9) activity in lungs ([3]; budesonide treatment (data not shown)): only a minimal effect
levels of MCP-1 in lungs ([3]; budesonide, LPS exposure): reduced
KC release ([3]; budesonide, LPS exposure (data not shown)): no appreciable effect

O=c1cc(N2CCOCC2)oc2c(-c3ccccc3)cccc12 [LY-294002]
oxidant-mediated reduced HDAC2 activity (HDAC2): restored oxidant-mediated reduced HDAC2 activity

C[C@@H]1C[C@H]2[C@@H]3CCC4=CC(=O)C=C[C@]4(C)[C@@]3(F)[C@@H](O)C[C@]2(C)[C@@]1(O)C(=O)CO [dexamethasone]
CSE-mediated IL-8 release (IL-8): failed to respond to CSE treatment
